# Experimental data reported in article PMC8495968 (RSC Chemical Biology, 2021).
# For some of these results: Strings that start with PEPTIDE1 are HELM notation: dots part the residues, brackets hold end groups and non-standard residues.
# Experiment: general procedure: Fmoc solid-phase peptide synthesis; Rink amide MBHA resin
# Conditions: whole synthesis
row,Molecule,final purity (method not given)
1,PEPTIDE1{[ac].D.N.E.I.E.V.E.I.V.W.E.K.K.[am]}$$$$V2.0,98%
2,DNED EVIIVWEKK,96%
3,PEPTIDE1{[ac].A.A.Q.L.R.R.I.G.D.K.V.N.L.R.Q.K.L.L.N.[am]}$$$$V2.0,90%
4,PEPTIDE1{[ac].D.N.E.I.E.V.I.I.E.W.E.K.K.[am]}$$$$V2.0,91%
5,PEPTIDE1{[ac].A.A.Q.Y.R.R.I.G.D.K.V.N.L.R.Q.K.L.L.N.[am]}$$$$V2.0,95%
6,PEPTIDE1{[ac].A.A.Q.F.R.R.I.G.D.K.V.N.L.R.Q.K.L.L.N.[am]}$$$$V2.0,94%
7,PEPTIDE1{[ac].D.N.E.I.E.V.I.I.V.W.E.K.K.[am]}$$$$V2.0,100%
8,PEPTIDE1{[ac].A.A.Q.L.R.R.I.G.D.K.F.N.L.R.Q.K.L.L.N.[am]}$$$$V2.0,95%
9,PEPTIDE1{[ac].D.N.E.I.E.I.I.I.V.W.E.K.K.[am]}$$$$V2.0,97%
10,PEPTIDE1{[ac].A.A.Q.W.R.R.I.G.D.K.V.N.L.R.Q.K.L.L.N.[am]}$$$$V2.0,94%

# Experiment: Circular dichroism, helicity
# Format: physicochemical
# Conditions: CD, in buffer (20 mM potassium phosphate, pH 7.5, 150 µM peptide)
row,Molecule,% helicity
1,Ac-AAQLRRIGDKFNLRQKLLN-NH2 [NOXA75–93V85F],9%
2,Ac-AAQWRRIGDKVNLRQKLLN-NH2 [NOXA75–93L78W],12%
3,CC[C@H](C)[C@H](NC(=O)[C@H](CCCNC(=N)N)NC(=O)[C@H](CCCNC(=N)N)NC(=O)[C@H](CC(C)C)NC(=O)[C@H](CCC(N)=O)NC(=O)[C@H](C)NC(=O)[C@H](C)NC(C)=O)C(=O)NCC(=O)N[C@@H](CC(=O)O)C(=O)N[C@@H](CCCCN)C(=O)N[C@H](C(=O)N[C@@H](CC(N)=O)C(=O)N[C@@H](CC(C)C)C(=O)N[C@@H](CCCNC(=N)N)C(=O)N[C@@H](CCC(N)=O)C(=O)N[C@@H](CCCCN)C(=O)N[C@@H](CC(C)C)C(=O)N[C@@H](CC(C)C)C(=O)N[C@@H](CC(N)=O)C(N)=O)C(C)C [NOXA75–93],15%
